Results taken from paper PMC12147762.
Results are given in words; binding and its absence hold for the method and conditions named. In cells and extracts the contact can be indirect. Some binding calls cover weakened binding; strength is not graded here. For some of these results: Where a sequence is shown, tags or fusion partners need not be part of it. One block for each binder: values may come before it.

Key:
[1] = molecular target: T1, IRF4 (human (endogenous in MM1.S)) (UniProt Q15306); experiment: co-IP; Endogenous proteins in MM1.S lysate (Pierce IP lysis buffer, sonicated); IP with IRF4 or POU2AF1 antibody overnight at 4°C, Dynabeads Protein G, immunoblot
T1 sequence: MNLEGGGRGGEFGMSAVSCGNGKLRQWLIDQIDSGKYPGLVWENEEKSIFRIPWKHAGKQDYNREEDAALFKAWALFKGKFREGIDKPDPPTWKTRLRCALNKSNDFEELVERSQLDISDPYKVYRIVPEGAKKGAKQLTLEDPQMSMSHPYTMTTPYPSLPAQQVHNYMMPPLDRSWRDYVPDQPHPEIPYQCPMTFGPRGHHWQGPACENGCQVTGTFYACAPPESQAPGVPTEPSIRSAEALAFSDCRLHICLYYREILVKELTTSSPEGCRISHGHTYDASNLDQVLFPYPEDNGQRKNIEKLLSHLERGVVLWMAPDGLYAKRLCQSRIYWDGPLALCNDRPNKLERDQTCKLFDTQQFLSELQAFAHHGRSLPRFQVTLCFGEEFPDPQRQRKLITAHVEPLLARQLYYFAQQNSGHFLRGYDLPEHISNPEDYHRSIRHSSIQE

IRF4-Flag = molecular target: T2, IRF4-Flag (UniProt Q15306); experiment: co-IP; HEK293FT transiently transfected with POU2AF1-HA and IRF4-Flag; lysate in Pierce IP lysis buffer; IP with HA-tag or Flag-tag antibody overnight at 4°C, Dynabeads Protein G, immunoblot
T2 sequence: T1 sequence

[2] = molecular target: T3, POU2AF1 (human (endogenous in MM1.S)) (UniProt Q16633); experiment: co-IP; Endogenous proteins in MM1.S lysate (Pierce IP lysis buffer, sonicated); IP with IRF4 or POU2AF1 antibody overnight at 4°C, Dynabeads Protein G, immunoblot
T3 sequence: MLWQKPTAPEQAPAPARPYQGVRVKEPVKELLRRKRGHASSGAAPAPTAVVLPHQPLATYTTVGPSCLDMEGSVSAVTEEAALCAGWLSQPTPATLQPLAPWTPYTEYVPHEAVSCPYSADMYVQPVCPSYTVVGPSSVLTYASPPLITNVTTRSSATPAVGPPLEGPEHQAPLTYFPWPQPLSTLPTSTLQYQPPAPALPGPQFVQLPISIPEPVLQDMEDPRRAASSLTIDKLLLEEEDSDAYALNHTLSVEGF

POU2AF1-HA = molecular target: T4, POU2AF1-HA (UniProt Q16633); experiment: co-IP; HEK293FT transiently transfected with POU2AF1-HA and IRF4-Flag; lysate in Pierce IP lysis buffer; IP with HA-tag or Flag-tag antibody overnight at 4°C, Dynabeads Protein G, immunoblot
T4 sequence: T3 sequence

B3: IRF4 (protein, UniProt Q15306 1-451)
chain: T1 sequence
binding [2]: binds

B4: IRF4-Flag (protein, UniProt Q15306 1-451)
chain: T1 sequence
binding (POU2AF1-HA): binds

Results, then the binder that gave them:

binding [1]: binds
B1: POU2AF1 (protein, UniProt Q16633 1-256)
chain: T3 sequence

binding (IRF4-Flag): binds
B2: POU2AF1-HA (protein, UniProt Q16633 1-256)
chain: T3 sequence
